# In PMC5460159:
# Sequences of proteins named here, by UniProt entry; tags and fusion partners are left off.
# UniProt P35222: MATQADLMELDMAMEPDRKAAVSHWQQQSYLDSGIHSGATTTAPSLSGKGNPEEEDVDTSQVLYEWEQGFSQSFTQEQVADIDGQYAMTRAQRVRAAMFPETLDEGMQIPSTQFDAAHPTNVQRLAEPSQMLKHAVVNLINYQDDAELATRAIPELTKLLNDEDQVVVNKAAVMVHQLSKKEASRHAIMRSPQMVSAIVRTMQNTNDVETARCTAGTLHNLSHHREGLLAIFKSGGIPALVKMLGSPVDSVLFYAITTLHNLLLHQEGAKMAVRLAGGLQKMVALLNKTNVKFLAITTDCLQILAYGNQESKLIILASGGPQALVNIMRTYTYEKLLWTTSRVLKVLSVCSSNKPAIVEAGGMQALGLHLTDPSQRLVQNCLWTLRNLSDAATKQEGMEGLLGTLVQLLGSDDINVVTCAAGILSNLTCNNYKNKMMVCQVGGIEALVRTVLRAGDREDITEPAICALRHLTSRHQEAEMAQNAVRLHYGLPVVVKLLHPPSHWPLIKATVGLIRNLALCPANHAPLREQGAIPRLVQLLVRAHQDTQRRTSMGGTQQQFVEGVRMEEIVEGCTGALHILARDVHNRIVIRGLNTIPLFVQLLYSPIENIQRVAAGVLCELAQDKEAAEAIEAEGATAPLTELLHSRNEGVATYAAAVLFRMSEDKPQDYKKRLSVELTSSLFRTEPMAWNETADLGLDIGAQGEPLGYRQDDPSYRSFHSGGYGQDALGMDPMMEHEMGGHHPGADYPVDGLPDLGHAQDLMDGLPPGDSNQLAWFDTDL
# UniProt Q60974: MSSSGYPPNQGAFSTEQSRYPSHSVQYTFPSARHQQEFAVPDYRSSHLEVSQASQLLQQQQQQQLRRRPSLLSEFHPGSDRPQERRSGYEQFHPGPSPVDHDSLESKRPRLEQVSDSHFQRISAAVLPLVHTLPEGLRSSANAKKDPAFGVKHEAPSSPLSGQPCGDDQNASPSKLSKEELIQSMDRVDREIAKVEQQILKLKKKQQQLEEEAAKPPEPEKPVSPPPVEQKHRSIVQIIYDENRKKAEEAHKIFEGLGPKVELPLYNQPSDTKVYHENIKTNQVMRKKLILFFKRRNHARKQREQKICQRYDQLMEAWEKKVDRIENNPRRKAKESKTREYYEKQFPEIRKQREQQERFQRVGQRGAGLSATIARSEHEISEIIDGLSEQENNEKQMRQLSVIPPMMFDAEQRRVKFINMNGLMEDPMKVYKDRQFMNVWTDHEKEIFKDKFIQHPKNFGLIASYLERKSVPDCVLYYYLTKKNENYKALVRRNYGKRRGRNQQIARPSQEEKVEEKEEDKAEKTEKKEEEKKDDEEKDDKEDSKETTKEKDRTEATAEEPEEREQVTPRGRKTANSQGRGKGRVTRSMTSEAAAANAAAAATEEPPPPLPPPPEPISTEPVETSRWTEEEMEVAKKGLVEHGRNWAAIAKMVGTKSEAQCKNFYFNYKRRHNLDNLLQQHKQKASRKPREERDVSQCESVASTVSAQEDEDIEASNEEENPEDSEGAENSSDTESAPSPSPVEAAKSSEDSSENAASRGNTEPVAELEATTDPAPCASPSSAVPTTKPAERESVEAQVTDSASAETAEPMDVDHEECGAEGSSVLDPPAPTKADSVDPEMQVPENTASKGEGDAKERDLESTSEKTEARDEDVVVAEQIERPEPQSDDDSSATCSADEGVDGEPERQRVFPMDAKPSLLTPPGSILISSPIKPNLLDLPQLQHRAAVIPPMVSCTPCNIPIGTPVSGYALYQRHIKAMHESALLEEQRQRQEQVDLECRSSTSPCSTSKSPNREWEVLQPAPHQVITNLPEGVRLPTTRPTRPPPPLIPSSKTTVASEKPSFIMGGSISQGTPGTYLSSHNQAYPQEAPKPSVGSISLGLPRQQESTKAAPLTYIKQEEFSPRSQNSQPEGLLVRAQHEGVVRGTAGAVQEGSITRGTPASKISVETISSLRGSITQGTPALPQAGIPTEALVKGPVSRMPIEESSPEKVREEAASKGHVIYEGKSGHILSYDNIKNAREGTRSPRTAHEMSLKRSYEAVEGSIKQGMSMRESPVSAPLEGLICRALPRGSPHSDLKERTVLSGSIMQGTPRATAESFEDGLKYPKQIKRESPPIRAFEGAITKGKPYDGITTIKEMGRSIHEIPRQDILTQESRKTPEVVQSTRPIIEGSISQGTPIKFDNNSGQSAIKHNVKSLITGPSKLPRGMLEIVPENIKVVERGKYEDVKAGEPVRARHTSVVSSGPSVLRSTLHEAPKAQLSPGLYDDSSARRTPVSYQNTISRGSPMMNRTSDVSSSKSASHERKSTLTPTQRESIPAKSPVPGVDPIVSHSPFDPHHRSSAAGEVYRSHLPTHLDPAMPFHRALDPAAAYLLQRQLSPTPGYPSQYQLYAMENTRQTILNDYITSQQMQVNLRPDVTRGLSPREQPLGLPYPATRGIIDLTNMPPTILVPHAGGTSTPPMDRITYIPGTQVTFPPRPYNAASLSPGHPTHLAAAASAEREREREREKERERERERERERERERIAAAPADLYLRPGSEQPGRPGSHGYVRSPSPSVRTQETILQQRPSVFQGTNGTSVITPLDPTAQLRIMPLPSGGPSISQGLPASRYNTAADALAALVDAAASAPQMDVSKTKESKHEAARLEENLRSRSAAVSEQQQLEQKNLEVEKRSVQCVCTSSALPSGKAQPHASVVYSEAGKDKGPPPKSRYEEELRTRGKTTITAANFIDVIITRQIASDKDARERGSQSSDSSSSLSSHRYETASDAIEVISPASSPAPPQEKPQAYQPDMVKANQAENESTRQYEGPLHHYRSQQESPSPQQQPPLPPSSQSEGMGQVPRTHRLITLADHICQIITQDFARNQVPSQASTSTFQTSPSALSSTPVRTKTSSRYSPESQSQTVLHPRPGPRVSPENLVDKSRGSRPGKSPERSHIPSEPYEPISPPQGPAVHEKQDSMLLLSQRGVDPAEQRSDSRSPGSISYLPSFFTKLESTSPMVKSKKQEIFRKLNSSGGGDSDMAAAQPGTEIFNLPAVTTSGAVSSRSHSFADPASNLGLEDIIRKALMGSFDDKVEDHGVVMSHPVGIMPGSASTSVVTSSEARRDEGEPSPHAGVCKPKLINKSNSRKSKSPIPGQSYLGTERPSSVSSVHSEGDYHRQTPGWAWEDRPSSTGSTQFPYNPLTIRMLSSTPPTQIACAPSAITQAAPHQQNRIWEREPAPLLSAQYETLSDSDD
# UniProt Q02248: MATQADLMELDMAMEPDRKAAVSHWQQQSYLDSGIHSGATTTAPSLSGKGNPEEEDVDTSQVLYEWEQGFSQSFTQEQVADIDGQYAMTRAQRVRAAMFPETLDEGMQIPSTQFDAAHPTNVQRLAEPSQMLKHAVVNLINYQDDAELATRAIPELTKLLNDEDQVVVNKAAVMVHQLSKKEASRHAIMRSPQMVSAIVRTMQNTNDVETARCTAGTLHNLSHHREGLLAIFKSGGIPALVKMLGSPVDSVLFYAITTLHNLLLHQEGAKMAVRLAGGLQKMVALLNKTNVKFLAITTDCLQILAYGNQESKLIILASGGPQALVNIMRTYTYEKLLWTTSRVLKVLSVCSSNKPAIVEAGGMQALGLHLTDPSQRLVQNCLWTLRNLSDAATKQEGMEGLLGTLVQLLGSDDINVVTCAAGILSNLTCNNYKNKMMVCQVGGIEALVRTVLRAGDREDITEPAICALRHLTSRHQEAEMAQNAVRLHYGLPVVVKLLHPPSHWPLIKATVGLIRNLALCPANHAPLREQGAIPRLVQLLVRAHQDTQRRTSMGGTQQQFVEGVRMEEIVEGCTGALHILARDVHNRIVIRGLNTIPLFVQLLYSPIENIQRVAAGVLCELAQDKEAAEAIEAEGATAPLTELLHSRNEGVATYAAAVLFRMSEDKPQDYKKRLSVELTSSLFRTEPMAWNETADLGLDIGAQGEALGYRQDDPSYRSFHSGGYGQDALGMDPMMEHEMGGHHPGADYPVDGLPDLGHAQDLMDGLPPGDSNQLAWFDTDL
# UniProt O75376: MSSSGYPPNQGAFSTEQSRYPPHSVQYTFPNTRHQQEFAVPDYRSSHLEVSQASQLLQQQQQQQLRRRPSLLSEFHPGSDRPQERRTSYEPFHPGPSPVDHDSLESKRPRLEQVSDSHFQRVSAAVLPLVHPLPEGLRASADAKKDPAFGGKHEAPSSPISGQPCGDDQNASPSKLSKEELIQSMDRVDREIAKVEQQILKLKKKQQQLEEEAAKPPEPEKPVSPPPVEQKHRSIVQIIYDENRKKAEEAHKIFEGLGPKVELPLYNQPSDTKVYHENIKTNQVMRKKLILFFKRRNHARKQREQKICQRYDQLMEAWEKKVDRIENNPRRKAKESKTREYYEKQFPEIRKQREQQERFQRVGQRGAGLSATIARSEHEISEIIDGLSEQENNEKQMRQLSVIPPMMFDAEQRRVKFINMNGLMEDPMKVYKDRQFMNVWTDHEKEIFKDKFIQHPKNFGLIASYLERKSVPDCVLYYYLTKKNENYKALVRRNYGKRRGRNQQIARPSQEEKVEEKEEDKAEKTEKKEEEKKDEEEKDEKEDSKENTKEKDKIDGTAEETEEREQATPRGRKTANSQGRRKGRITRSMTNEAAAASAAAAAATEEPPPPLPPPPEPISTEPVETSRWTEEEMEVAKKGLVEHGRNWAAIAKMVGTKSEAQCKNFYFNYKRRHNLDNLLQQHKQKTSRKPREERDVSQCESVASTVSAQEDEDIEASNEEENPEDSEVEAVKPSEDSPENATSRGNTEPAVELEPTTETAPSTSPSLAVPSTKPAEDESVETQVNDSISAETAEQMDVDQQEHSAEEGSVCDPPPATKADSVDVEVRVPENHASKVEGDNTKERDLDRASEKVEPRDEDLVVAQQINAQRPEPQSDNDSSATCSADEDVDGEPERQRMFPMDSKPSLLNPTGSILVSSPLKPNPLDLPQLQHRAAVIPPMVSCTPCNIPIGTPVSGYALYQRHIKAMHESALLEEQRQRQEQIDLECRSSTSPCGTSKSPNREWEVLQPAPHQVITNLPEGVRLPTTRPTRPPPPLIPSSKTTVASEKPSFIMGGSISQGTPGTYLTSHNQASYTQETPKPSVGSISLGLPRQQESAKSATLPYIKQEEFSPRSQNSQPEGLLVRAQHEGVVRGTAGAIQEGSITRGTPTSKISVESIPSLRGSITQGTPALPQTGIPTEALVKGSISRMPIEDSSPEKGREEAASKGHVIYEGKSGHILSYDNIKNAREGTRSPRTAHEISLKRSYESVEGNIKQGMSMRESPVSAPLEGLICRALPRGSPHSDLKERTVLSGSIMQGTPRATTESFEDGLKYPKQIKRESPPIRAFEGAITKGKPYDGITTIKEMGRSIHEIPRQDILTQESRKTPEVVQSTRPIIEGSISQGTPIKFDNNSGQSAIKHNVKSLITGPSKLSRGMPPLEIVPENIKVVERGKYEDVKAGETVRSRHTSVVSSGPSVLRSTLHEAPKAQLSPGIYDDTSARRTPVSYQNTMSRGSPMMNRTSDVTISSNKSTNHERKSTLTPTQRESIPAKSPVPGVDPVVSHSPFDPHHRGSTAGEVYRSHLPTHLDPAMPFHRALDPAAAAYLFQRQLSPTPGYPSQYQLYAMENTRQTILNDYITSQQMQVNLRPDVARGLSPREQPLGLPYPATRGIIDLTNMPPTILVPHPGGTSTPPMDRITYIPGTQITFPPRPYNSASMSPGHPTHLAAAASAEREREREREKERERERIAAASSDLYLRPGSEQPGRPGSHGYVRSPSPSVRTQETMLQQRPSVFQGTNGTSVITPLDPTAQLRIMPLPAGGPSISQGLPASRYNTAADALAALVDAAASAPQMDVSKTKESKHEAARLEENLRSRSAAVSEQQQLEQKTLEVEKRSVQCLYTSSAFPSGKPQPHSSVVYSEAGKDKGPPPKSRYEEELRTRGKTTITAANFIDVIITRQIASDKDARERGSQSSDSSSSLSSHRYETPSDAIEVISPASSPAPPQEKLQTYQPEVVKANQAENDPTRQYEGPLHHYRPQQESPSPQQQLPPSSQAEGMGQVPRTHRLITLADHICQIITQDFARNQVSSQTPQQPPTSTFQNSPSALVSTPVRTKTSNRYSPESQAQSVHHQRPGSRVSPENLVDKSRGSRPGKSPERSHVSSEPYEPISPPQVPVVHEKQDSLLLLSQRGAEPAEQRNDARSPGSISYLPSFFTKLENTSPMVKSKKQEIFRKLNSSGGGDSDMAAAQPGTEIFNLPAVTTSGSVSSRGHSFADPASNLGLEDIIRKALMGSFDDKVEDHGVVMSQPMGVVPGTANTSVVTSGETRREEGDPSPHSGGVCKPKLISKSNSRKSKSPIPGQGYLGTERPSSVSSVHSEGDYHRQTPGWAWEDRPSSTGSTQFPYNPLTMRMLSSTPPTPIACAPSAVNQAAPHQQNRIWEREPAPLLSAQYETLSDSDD
# Residue numbers refer to the chain shown, from its start. These are yes or no findings as the source states them, for the method shown. In cells and extracts the contact can be indirect. Some results given as binding are weak or reduced against the parent protein; the word gives no strength. Where a sequence is shown, tags or fusion partners need not be part of it.
# Experiments:
# [1] = target: T1, FLAG-tagged mutant TBL1XR1 (TBL1XR1^Phe10Leu), expressed in 293FT cells (UniProt Q9BZK7); experiment: co-IP; lysate of transfected 293FT cells in 50 mM Tris-HCl pH 7.4, 150 mM sodium chloride, 1% NP-40, 0.3% sodium deoxycholate, 0.1% SDS, protease inhibitors; primary antibodies and protein G Plus/Protein A agarose; Western blot, densitometry
# T1 sequence: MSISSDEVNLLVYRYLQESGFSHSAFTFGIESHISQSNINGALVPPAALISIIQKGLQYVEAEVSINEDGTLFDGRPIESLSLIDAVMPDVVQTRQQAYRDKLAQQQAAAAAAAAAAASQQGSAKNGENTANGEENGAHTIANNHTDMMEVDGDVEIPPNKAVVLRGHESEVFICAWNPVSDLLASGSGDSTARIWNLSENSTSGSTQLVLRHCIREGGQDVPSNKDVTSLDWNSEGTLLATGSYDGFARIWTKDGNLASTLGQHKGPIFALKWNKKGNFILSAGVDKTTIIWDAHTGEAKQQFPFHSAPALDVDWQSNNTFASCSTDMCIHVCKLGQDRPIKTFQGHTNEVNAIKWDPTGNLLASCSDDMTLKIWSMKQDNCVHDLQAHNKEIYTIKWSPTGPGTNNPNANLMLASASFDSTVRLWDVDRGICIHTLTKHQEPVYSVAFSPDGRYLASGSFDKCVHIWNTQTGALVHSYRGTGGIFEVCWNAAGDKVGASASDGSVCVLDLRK
# [2] = target: T2, FLAG-tagged transducin (beta)-like 1 X-linked receptor 1 (TBL1XR1), wild type, expressed in 293FT cells (UniProt Q9BZK7); experiment: as above
# T2 sequence: T1 sequence with L10F
# [3] = target: T3, FLAG-tagged transducin (beta)-like 1 X-linked receptor 1 (TBL1XR1), wild type, expressed in HT22 cells (UniProt Q9BZK7); experiment: co-IP; lysate of transfected HT22 cells in 50 mM Tris-HCl pH 7.4, 150 mM sodium chloride, 0.1% NP-40, protease inhibitors; primary antibodies and protein G Plus/Protein A agarose; Western blot, densitometry
# T3 sequence: T1 sequence with L10F
# [4] = target: T4, FLAG-tagged mutant TBL1XR1 (TBL1XR1^Phe10Leu), expressed in HT22 cells (UniProt Q9BZK7); experiment: as above
# T4 sequence: T1 sequence
Substance,binding [1],binding [2],binding [3],binding [4]
"β-catenin, endogenous in 293FT cells (from UniProt P35222 1-781)",binds,binds,–,–
"nuclear receptor corepressor (N-CoR), endogenous in HT22 cells (from UniProt Q60974 1-2453)",–,–,binds,binds
"β-catenin, endogenous in HT22 cells (from UniProt Q02248 1-781)",–,–,binds,binds
"nuclear receptor corepressor (N-CoR), endogenous in 293FT cells (from UniProt O75376 1-2440)",binds,binds,–,–
